Measured values taken from article PMC4863620.
The exact form of at least one protein or probe is not confirmed. A weaker result is weaker than the reference pair of the same experiment.

Columns and labels:
[1] = system: LpCSP1 (Lingulodinium polyedrum); test: EMSA; settings: 10 mM Mg2+, 1x binding buffer: 10 mM Tris-Cl pH 7.0, 25 mM KCl, 0.5 mM DTT, 10 mM MgCl2, 5% glycerol, 30 min at room temperature, 1 ng probe, 5% native PAGE in 0.5x TBE, recombinant protein, protein details: GST removed by thrombin (pGEX-4T2), label: 5'-32P
[2] = system: LpCSP2 (Lingulodinium polyedrum); test: EMSA; settings: 10 mM Mg2+, 1x binding buffer: 10 mM Tris-Cl pH 7.0, 25 mM KCl, 0.5 mM DTT, 10 mM MgCl2, 5% glycerol, 30 min at room temperature, 1 ng probe, 5% native PAGE in 0.5x TBE, recombinant protein, protein details: GST removed by thrombin (pGEX-4T2), label: 5'-32P
[3] = system: LpCSP1 (Lingulodinium polyedrum); test: competition with a labelled probe; settings: 1x binding buffer: 10 mM Tris-Cl pH 7.0, 25 mM KCl, 0.5 mM DTT, 10 mM MgCl2, 5% glycerol, 30 min at room temperature, 1 ng probe, 5% native PAGE in 0.5x TBE, recombinant protein, protein details: GST removed by thrombin (pGEX-4T2), label: 5'-32P

Sequence	binding result ([1]; 300 and 1000 ng protein)	binding result ([2]; 300 and 1000 ng protein)	binding result ([3]; unlabeled dsDNA 1x-100x against labeled ssDNA N1, 600 ng protein)	binding result ([1]; 100-1000 ng protein, 5 mM KCl-free data not given, single-stranded DNA)	binding result ([2]; 100-1000 ng protein, single-stranded DNA)	binding result ([3]; unlabeled ssDNA 1x-100x against labeled dsDNA N2, 600 ng protein, single-stranded DNA)
GGTGAGGCTGATTGGCTGGGCAGGA (double strand) [Y-box dsDNA 25-mer probe]	binds more weakly	binds more weakly	binds more weakly	–	–	–
TCGATCGGGGCGGGGCGATCGGGGCGGGGCGA [ssDNA 32-mer probe]	–	–	–	binds	binds	binds
